Experimental data reported in publication PMC7862700.
This is a selection; strong and weak results do not stand in their true shares. For some of these results: At the low end of the ranking the order means little. The list shows a part of the results. For some of these results: Construct or isoform of the protein are uncertain.

Experiments:
ETS1 = molecular target: T1, ETS1 (UniProt P14921); assay: DAPPL (digital affinity profiling via proximity ligation, sequencing); conditions: 10 mM Tris-HCl pH 7.5, 50 mM NaCl, 1 mM DTT, 4% glycerol, room temperature, 30 min; GST-TFs on glutathione beads, 16-mer random dsDNA library, 0.1% …; high values mean tight binding; double strand, one strand shown; scale: fold enrichment (6-mer frequency, TF over GST control)
T1 sequence: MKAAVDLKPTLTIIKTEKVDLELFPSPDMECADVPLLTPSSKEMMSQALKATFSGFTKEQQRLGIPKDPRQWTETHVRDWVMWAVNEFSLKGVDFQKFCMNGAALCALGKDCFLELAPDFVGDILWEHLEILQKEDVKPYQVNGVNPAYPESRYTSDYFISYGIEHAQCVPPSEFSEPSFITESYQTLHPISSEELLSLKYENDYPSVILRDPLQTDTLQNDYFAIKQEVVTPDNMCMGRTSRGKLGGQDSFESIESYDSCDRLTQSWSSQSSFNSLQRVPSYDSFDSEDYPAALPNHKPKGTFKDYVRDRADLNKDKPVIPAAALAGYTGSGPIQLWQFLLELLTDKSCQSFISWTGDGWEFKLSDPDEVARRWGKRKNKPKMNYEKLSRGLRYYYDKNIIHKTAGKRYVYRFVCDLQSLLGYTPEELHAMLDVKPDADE

SPDEF = molecular target: T2, SPDEF (UniProt O95238); assay: as above; conditions: 10 mM Tris-HCl pH 7.5, 50 mM NaCl, 1 mM DTT, 4% glycerol, room temperature, 30 min; GST-TFs on glutathione beads, 16-mer random dsDNA library, 0.1% …; high values mean tight binding; double strand, one strand shown; scale: fold enrichment (6-mer frequency, TF over GST control)
T2 sequence: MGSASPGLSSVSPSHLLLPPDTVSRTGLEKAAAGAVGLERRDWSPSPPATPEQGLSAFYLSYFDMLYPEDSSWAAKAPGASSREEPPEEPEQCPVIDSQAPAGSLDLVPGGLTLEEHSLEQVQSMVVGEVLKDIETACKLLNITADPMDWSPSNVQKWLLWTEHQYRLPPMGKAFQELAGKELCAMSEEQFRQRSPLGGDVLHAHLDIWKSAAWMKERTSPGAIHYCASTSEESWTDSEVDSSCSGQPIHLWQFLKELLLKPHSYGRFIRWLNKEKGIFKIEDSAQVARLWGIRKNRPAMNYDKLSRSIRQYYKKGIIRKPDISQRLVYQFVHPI

| Sequence | binding signal (ETS1) | binding signal (SPDEF) |
| --- | --- | --- |
| ATGATC | 1.15 | 1.27 |
| TTTGCT | 1.19 | 1.16 |
| ATGTAA | 1.43 | 1.32 |
| ATCACC | 1.09 | 1.12 |
| GATGCT | 1.2 | 1.2 |
| CATTTA | 1.23 | 1.22 |
| ATAGAA | 1.1 | 1.02 |
| CGACGA | 1.12 | 1.13 |
| CGTATG | 1.05 | 1.05 |
| GTGCTC | 1.24 | 1.05 |
| TGCCGC | 1.25 | 1.15 |
| GTTCAT | 1.15 | 1.18 |
| ATCCAA | 1.14 | 1.22 |
| GAACAT | 1.07 | 0.981 |
| GCCTCA | 1.21 | 1.16 |
| TTCTTT | 1.12 | 1.08 |
| ACATTA | 1.15 | 1.12 |
| CAATAA | 1.22 | 1.05 |
| TATTCA | 1.43 | 1.28 |
| TACTAA | 1.21 | 1.22 |
| AACGAC | 1.11 | 1.16 |
| AGGCTC | 1.12 | 0.938 |
| ATGGTA | 1.47 | 1.31 |
| CACTTG | 1.27 | 1.35 |

Complete entries as entered above:
ATGGTA as listed: binding signal (ETS1): 1.47; binding signal (SPDEF): 1.31
CGTATG as listed: binding signal (ETS1): 1.05; binding signal (SPDEF): 1.05
CGACGA as listed: binding signal (ETS1): 1.12; binding signal (SPDEF): 1.13
GTTCAT as listed: binding signal (ETS1): 1.15; binding signal (SPDEF): 1.18

Remaining list, next part.

| Sequence | binding signal (ETS1) | binding signal (SPDEF) |
| --- | --- | --- |
| GAATCT | 1.11 | 0.989 |
| TCCGGC | 2.23 | 3.14 |
| TTACGA | 1.19 | 1.1 |
| CTGGCC | 1.11 | 0.926 |
| TTTTAA | 1.28 | 1.21 |
| CCTACG | 1.35 | 1.41 |
| CTCCTG | 1.64 | 1.6 |
| ATGGAA | 1.15 | 1.2 |
| ATCATT | 1.05 | 0.953 |
| TTAACA | 1.19 | 1.21 |
| AATGAT | 1.13 | 1.13 |
| TCCTCC | 1.62 | 1.61 |
| TTAAAA | 1.28 | 1.15 |
| CGACAC | 1.21 | 1.15 |
| CTGCCT | 1.3 | 1.31 |
| CGGATA | 1.14 | 1.93 |
| CTGTAA | 1.1 | 0.962 |
| TCTCCG | 1.47 | 1.65 |
| CGATGA | 1.01 | 0.907 |
| ACTGCT | 1.57 | 1.26 |
| CCTACT | 1.68 | 1.49 |
| TGCTTC | 2.02 | 2.39 |
| TCTTAC | 1.33 | 1.36 |
| ATGCAA | 1.33 | 1.3 |

| Sequence | binding signal (ETS1) | binding signal (SPDEF) |
| --- | --- | --- |
| ATGTGT | 1.12 | 1.23 |
| CGATAT | 1.19 | 1.06 |
| AATACA | 1.39 | 1.37 |
| AACGTA | 0.986 | 1.01 |
| GACCTC | 1.4 | 1.29 |
| TACCAA | 1.26 | 1.17 |
| ATGTCA | 1.13 | 1.1 |
| GTCTTC | 1.39 | 1.27 |
| CGTTAC | 1.25 | 1.1 |
| CTTATG | 1.51 | 1.53 |
| CCTCGT | 1.16 | 1.19 |
| TCGTAC | 1.07 | 1.06 |
| AAAAAA | 1.43 | 1.21 |
| TCCATC | 1.16 | 1.3 |
| ACAATC | 1.18 | 1.16 |
| ATGACA | 1.26 | 1.31 |
| TCTCTA | 1.32 | 1.24 |
| AAAAGC | 1.17 | 1.07 |
| AACCAT | 1.24 | 1.11 |
| ATACAG | 1.13 | 1.21 |
| TTAACG | 1.07 | 1.23 |
| TGCGAT | 1.13 | 1.15 |
| AACCCA | 1.08 | 0.97 |
